Here are results for 68 sequences from PubChem BioAssay AID1508600 (Functional Genomics Laboratory (NCATS/FGL), 2020).

In all, about 53,000 sequences went through this assay and about 3,700 (7%) were called active.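 The calls were made as follows: active = gene knockdowns whose robust z-score for IL-1 alpha signal is at least 2 or at most -2, so actives lie on both sides; inactive = the rest.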 This is one part of the list.

The nature of this assay: Components of the Cytosolic LPS Sensing Pathway: Gene Identification via Genome-wide siRNA Screen.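 Also: robust z of the log signal after scaling to non-targeting control siRNA wells of the plate.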 The settings on record: RAW264.7 macrophages, IL-1a HTRF, actives lie on both sides, screened at 100 nM (by protocol), cells primed 5 h with Pam3CSK4 first. In a few lines:
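Supernatant IL-1a by HTRF from RAW264.7 cells primed with Pam3CSK4 (5 hours) and transfected with LipidA (24 hour) after 48h siRNA knockdown at 100 nM; cell viability checked with CellTiter-Glo.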
On the technique in general: In TR-FRET formats the signal depends on donor and acceptor labels being close together.
With GGCCAUAACACAAAUGUAGTT against Prpf4, the z-score is inactive: 0.554.

For the sequence GGACUACCUGUGUAUGCUCTT against Dcaf12l1, the z-score is inactive: 1.3.

With GGUAGUUCAUCUCAGGCCUTT against Muc13, the z-score is inactive: 0.524.

For GGGAUUCUAGACCAAUCCATT against Fam114a1, the z-score was inactive: -0.538.

As to GGAAAUGACGAGAAGAAAGTT against Mapt, the z-score is inactive: -0.0597.

Regarding GGAGAAACAUCAAUUGCACTT against Thbs2, the z-score is inactive: -0.0207.

GGGUCUCAUUGACCACCAGTT against Plec: the z-score was inactive: -0.0874.

GCCAUCCUGAUAUCAGGCATT against Tas2r138: the z-score is inactive: -0.991.

Take CGUCUGCCACCUAUUUGAGTT against Olfr122: the z-score is inactive: 0.165.

For GGGAGCUAUGGAUUUGCUGTT against Tcea2, the z-score was inactive: -0.0877.

With GGCAGUAGUGUUAACGGUGTT against Chrnb2, the z-score was inactive: 0.422.

As to “CCGUGAUCCCUUUUCACCATT against 6030445D17Rik”, the z-score was active: -2.26.

GGAAUCUAGCUGAGAAAAUTT against Lepr: the z-score was inactive: -0.62.

For GGAAGAGCUGGACUUCUUCTT against Hoxb2, the z-score is inactive: 1.71.

For the sequence GGCCUCCUGAUUUGAUUGUTT against Crct1, the z-score was inactive: 0.971.

With GGUGAAACAGCGAAUAGGUTT against Zfp428, the z-score was inactive: -0.168.

On to GGCAUCAAGCACAAGAAAATT against Sys1, for which the z-score was inactive: -1.16.

Regarding GGCCUGACCUUCAACAAGATT against Gab2, the z-score was inactive: 0.24.

Turning to GGGAUCCAUCCUUAUUGUUTT against Ybx2, the z-score was inactive: -0.101.

On to GACCAUAGGGCAGAUGAAGTT against Svs3b, for which the z-score was inactive: -1.4.

On to GGAAAUCCAGAAGCGUGUGTT against Gtpbp3, for which the z-score is inactive: -0.436.

For GGACUUGGAAGAAGUAUAATT against Rbl2, the z-score was inactive: -0.713.

For GGUCCUGGAAGAUCCUUCUTT against Slc30a6, the z-score was inactive: 0.337.

As for CCAGAUCAUCGUGCAGAAUTT against E4f1, the z-score was inactive: 0.557.

On to GGAUUAAGUUGUCAUCAUUTT against Cdk14, for which the z-score was inactive: 0.874.

For CGUAUCCAAAAGUGAUUUCTT against Tigd5, the z-score is inactive: 1.27.

For GGGUAUCCCGCUUUUCUACTT against Slc6a18, the z-score is inactive: 0.841.

Regarding GGACAAAUUGGUUGUGCUATT against Olfr457, the z-score was inactive: -1.46.

CCGAAUGAUCAUCACACUGTT against Vmn1r32: the z-score was inactive: 0.155.

For the sequence GGCCUUGAAGCAGAAGUCUTT against Gfra1, the z-score was inactive: -1.21.

CGGUCACAGAGGAAGAAUATT against Ank2: the z-score is inactive: 0.236.

Regarding GCGCAUUCUCCAUUAAACATT against Cyp4f16, the z-score was inactive: 0.429.

Take GGAGUCUUGUCCAUGUAAUTT against Zfp52: the z-score is inactive: 0.28.

For the sequence GGCCUUUGCAUGCAAUAGUTT against Zfp119b, the z-score is inactive: 0.0596.

GGGUCUAGAGACAUGUGGCTT against Saa3: the z-score is inactive: 0.198.

For the sequence GGACCACAUAGCUUUUGAGTT against Zswim6, the z-score is inactive: 0.458.

Regarding GCAGUCAGGAGUUGUUCAGTT against Btg1, the z-score is inactive: 0.648.

For CGAUUCUUUACUAAAUUGGTT against Chek1, the z-score is inactive: -0.313.

For CGGACAUCAUUGUUUUAAGTT against Rbbp7, the z-score is inactive: -0.891.

Regarding GCGCAGAGCAAAAUCGAAUTT against Gja1, the z-score was inactive: 1.09.

With GGGAGUGGCUCCUCAGAAATT against AW549877, the z-score is inactive: -1.98.

Take GGAAAAUCAGAUUUCAGAGTT against Lrrn1: the z-score was inactive: -1.35.

GCAAAUGACCUUCUCACACTT against Gga2: the z-score was inactive: 1.44.

As for CCAAGUAAUGGCUGAUCGCTT against Tmem74, the z-score was inactive: -0.802.

As for GGCUUUCAGAAGUUUAUCATT against Lgr5, the z-score is inactive: -0.217.

As to GGACAUCAUGGACCUGAAGTT against Bmerb1, the z-score is inactive: -0.582.

Turning to GAGGGCUCUACAGUUUUUATT against Atp5g3, the z-score was inactive: 0.952.

In the case of GCUGCUUUCUUUGGAGGACTT against Olfr484, the z-score is active: 2.27.

Consider GGAAAUGAAUAUGAACCUUTT against Tmem67, for which the z-score was inactive: 0.536.

Turning to GGUGAUUGACAGAUUCUGATT against Nr4a1, the z-score is inactive: -0.613.

As for GGUUCAGAUCCACAGCCAGTT against Asic2, the z-score is active: -2.12.

For GGGCCUUGUACUUCACUUGTT against Med23, the z-score was inactive: 0.545.

For the sequence GCCAACCUGAAUAGACCUCTT against Glis3, the z-score was inactive: 1.67.

As for GGAGCAUACAUCUAAGAUUTT against Zfp185, the z-score was inactive: -0.0921.

Turning to CGGUAAUCAUUGCUGUUCUTT against H2-K1, the z-score was inactive: 1.05.

In the case of GGAGAUACCUGUCAAACAATT against Npm2, the z-score was inactive: -0.971.

As to GCUCUGUUCACACGUUUAATT against Arhgap10, the z-score is inactive: -0.898.

For the sequence GGCUGUAAAUAUCUGCCAUTT against Meaf6, the z-score was inactive: -1.41.

As to CCACAUGAACAAUUUGGGCTT against Rpl9, the z-score was inactive: 0.0288.

Turning to GGAAGUUACUGUUGAGUAGTT against Olfr114, the z-score is inactive: 0.209.

Turning to GGUGUUUACACCCAGCACCTT against Ankfn1, the z-score is inactive: 1.27.

GGUUCAUCUUUCAAAUCUATT against Kpna4: the z-score is inactive: -0.676.

On to GGAUCAUGGGCGAAUGAUGTT against Rae1, for which the z-score was inactive: -1.41.

Turning to GGAAUCCUUUGUCAAAGGATT against Myh2, the z-score was inactive: 0.82.

On to CUCUAAGCAGCCGAACACUTT against Scx, for which the z-score is inactive: -1.08.

CGGCCUUUAUGAAAAGUUATT against Rraga: the z-score was inactive: 0.172.

For the sequence GGAAUCUAUCUCUACUGUATT against Hp1bp3, the z-score is inactive: 1.34.

GGUCAAUAAAGAGUGUGAATT against Fam25c: the z-score was inactive: -1.22.
